No constants are given. Whether binding was seen depends on the method and setting. Binding seen in cells or lysates may run through a third protein. Some results given as binding are weak or reduced against the parent protein; the word gives no strength.

By UniProt entry, the sequences of proteins in these tests, tags left out.
UniProt P05453: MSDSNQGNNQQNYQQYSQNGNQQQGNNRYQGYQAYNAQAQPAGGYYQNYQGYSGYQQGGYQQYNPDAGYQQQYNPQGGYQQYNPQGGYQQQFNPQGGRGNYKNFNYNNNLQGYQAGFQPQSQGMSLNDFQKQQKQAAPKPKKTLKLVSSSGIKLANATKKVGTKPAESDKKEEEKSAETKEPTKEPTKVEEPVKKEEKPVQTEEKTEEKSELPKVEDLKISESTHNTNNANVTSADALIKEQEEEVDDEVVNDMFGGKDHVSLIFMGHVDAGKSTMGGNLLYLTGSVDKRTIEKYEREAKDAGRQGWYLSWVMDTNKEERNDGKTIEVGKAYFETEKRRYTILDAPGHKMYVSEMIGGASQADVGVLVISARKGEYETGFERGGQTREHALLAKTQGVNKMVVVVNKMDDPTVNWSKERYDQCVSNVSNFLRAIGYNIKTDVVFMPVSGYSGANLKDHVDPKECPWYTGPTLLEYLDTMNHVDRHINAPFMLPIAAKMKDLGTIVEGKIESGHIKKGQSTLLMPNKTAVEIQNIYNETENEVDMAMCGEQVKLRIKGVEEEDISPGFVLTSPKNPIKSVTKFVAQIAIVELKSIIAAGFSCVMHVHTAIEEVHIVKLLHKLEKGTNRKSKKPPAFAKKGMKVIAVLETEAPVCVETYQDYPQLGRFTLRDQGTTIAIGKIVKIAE

For the assay, the target named is Sup35 translation termination factor tagged at its C-terminus with a tandem affinity purification (TAP) tag (S. cerevisiae) (UniProt P05453). In words: co-IP; Sup35-TAP immunoprecipitated from wild-type and tsa1 tsa2 mutant extracts; immunoblot with antibodies against Abp1, Arp3, Sap190 and Act1. Background: In western blotting, separated proteins are transferred to a membrane and probed.

B1: Abp1 actin nucleation promoting factor (protein, UniProt P15891 1-592)
chain: MALEPIDYTTHSREIDAEYLKIVRGSDPDTTWLIISPNAKKEYEPESTGSSFHDFLQLFDETKVQYGLARVSPPGSDVEKIIIIGWCPDSAPLKTRASFAANFAAVANNLFKGYHVQVTARDEDDLDENELLMKISNAAGARYSIQTSSKQQGKASTPPVKKSFTPSKSPAPVSKKEPVKTPSPAPAAKISSRVNDNNDDDDWNEPELKERDFDQAPLKPNQSSYKPIGKIDLQKVIAEEKAKEDPRLVQKPTAAGSKIDPSSDIANLKNESKLKRDSEFNSFLGTTKPPSMTESSLKNDDDKVIKGFRNEKSPAQLWAERKAKQNSGNAETKAEAPKPEVPEDEPEGEPDVKDLKSKFEGLAASEKEEEEMENKFAPPPKKSEPTIISPKPFSKPQEPVKAEEAEQPKTDYKKIGNPLPGMHIEADNEEEPEENDDDWDDDEDEAAQPPLPSRNVASGAPVQKEEPEQEEIAPSLPSRNSIPAPKQEEAPEQAPEEEIEEEAEEAAPQLPSRSSAAPPPPPRRATPEKKPKENPWATAEYDYDAAEDNELTFVENDKIINIEFVDDDWWLGELEKDGSKGLFPSNYVSLGN
Turning to B1, the binding entry is “binds”.

Source of the values: publication PMC5393896.
